In PubChem BioAssay AID485314 (National Center for Advancing Translational Sciences (NCATS), 2010):
The campaign covered roughly 340,000 compounds. About 4,500 (1.3%) were called active. Inconclusive means that the source gave no clear call. Such entries were picked first, then a sample of the others. Calls come from the whole dose curve; as a rule, active = well fitted inhibition curve with a large enough effect; inconclusive = small, poorly fitted or top-dose-only effect, or another doubt; inactive = no such curve, though single readings can be large or run the other way. Where the call is inconclusive, the potency comes from a doubtful curve fit.

target: DNA polymerase beta (Homo sapiens) (UniProt P06746); assay: qHTS Assay for Inhibitors of DNA Polymerase Beta; conditions: Pol beta primer extension/strand displacement, fluorescence kinetic; activity change, negative = inhibition: at 114 µM (top of the series)
Outline: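 Reaction started by 50 nM substrate onto compound-treated Pol beta (10 nM, 15 min preincubation, room temperature); plates read at 0 min and 10 min. Normalized concentration-effect data fitted by four-parameter Hill equation.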
% is set by controls: 0 for no effect and ±100 for the full control effect; potency is the fitted concentration of half-maximal effect.

SMILES	Potency	activity change, negative = inhibition
CCc1cccc(OCCCCNCCO)c1	inconclusive: 39.8 µM [inhibitor, single point]	–
COCCCn1c(Cc2csc(Nc3cccc(Cl)c3)n2)nnc1SCC(=O)OC1CCCCC1	active: 44.7 µM	–
Cc1ccc(Nc2nc(-c3ccc(O)c(O)c3)cs2)nc1	inconclusive: 1.78 µM [inhibitor, full curve]	–
CC(C)NC(=O)C1CCCN(S(=O)(=O)c2ccc3c(ccn3C)c2)C1 (stereo not drawn)	inactive	–
O=c1[nH]c(/C=C/c2cccnc2)c([N+](=O)[O-])c(=O)[nH]1	inactive	–
COc1ccc(N2C(=O)CCC2(C#N)c2ccc(OC)cc2)cc1 (stereo not drawn)	inconclusive: 22.4 µM [inhibitor, partial curve, poor fit]	–
Cc1ccccc1Nc1nc(N)nc(COC(=O)/C=C/c2ccco2)n1	inconclusive: 28.2 µM [inhibitor, full curve, poor fit]	–
COc1ccc(C)cc1NC(=O)Cn1c(=O)oc2cc(S(=O)(=O)N3CCCCCC3)ccc21	inconclusive: 56.2 µM [inhibitor, partial curve, poor fit]	–
CCC(C(=O)NCCc1ccc(OC)c(OC)c1)n1nc(C)c2sc3ccccc3c2c1=O (stereo not drawn)	inconclusive: 22.4 µM [inhibitor, single point]	–
COc1ccc(/C=C2\CCc3c2nc2ccccc2c3C(=O)O)cc1OC	inactive	–
CCn1c(C)nc2cc(C(=O)NNC(=O)CCC3CCCCC3)ccc21	inactive	–
Cc1ccc(NC(=O)CCC(=O)NNC(=O)COc2ccc([N+](=O)[O-])cc2)cc1C	inconclusive: 28.2 µM [inhibitor, full curve, poor fit]	–
O=C(O)c1cc(NS(=O)(=O)c2ccc(NC3CCCCC3)c([N+](=O)[O-])c2)cc(C(=O)O)c1	inactive	–
COCCCn1c(=O)c2sccc2n(Cc2cc(C(=O)OC)ccc2OC)c1=O	inactive	–
O=C(NCCCO)/C(=C/c1ccc(-c2cccc([N+](=O)[O-])c2)o1)NC(=O)c1ccccc1	inconclusive: 89.1 µM [inhibitor, single point]	–
O=C(O)C1OC(Oc2cc3oc(-c4ccccc4)cc(=O)c3c(O)c2O)C(O)C(O)C1O (stereo not drawn)	active: 50.1 µM	–
Cn1c(SCc2cccc([N+](=O)[O-])c2)nc2c(c1=O)SCC2	inconclusive: 15.8 µM [inhibitor, partial curve]	–
O=C(O)c1cc(O)c2c(c1)C(=O)c1cc(O)cc(O)c1C2=O	active: 7.94 µM	–
Cc1cc[n+](-c2[nH]c(=O)sc2/C=N/N=C(\[O-])c2ccccc2)cc1C	inconclusive: 79.4 µM [inhibitor, partial curve]	–
CC(NC(=O)c1ccccc1F)c1nnc(SCC(=O)Nc2nccs2)n1C (stereo not drawn)	inconclusive: 89.1 µM [inhibitor, single point]	–
CCOc1ccc(/C=C/c2nc(C#N)c(NCc3ccc(OC)cc3)o2)cc1	inconclusive: 89.1 µM [inhibitor, single point]	–
CC(=O)Nc1ccc(C(=O)N/N=C(\C)CC(=O)Nc2ccc(OCc3ccccc3)cc2)cc1	inconclusive: 79.4 µM [inhibitor, partial curve, poor fit]	–
CN(C)c1cccc(C(=O)N2CCCC(CCC(=O)N3CCN(c4ccccn4)CC3)C2)c1 (stereo not drawn)	inconclusive: 100 µM [inhibitor, single point]	–

SMILES	Potency	activity change, negative = inhibition
Cc1csc(NC(=O)CSc2nc3[nH]ncc3c(=O)[nH]2)n1	inactive	–
O=[N+]([O-])c1c(NCCCO)cc(Sc2ccc(Cl)cc2)c2nonc12	inactive	–
O=C(Nc1ccc(O)c2c(=O)cc(-c3cccc(Cl)c3)oc12)c1cccc(Cl)c1	inconclusive: 89.1 µM [inhibitor, partial curve, poor fit]	–
Cc1cccc(N2CCN(C(=O)c3cc4ccc5cccnc5c4[nH]3)CC2)c1C	inconclusive: 89.1 µM [inhibitor, single point]	–
O=C(O)COc1ccccc1C(Nc1cccnc1)c1cc(Cl)c2cccnc2c1O (stereo not drawn)	inactive	–
C=CCOC(=O)C1=C(C)NC(SC)=C(C#N)C1c1ccc(OCC)cc1 (stereo not drawn)	inactive	–
COc1ccc(CCNC(=O)c2cc(-c3ccc(C)c(C)c3O)n[nH]2)cc1OC	inconclusive: 25.1 µM [inhibitor, full curve, poor fit]	–
CC(C)CNC(=O)c1c(N)n(/N=C/c2ccccn2)c2nc3ccccc3nc12	inconclusive: 3.55 µM [inhibitor, full curve, poor fit]	–
CCN(CC)CCNC(=O)c1ccc(NC(=O)c2ccccc2-c2ccc(C(F)(F)F)cc2)cc1	inactive	–
CCOC(=O)c1sc(NC(=O)C2CC(=O)N(c3ccc(C)cc3)C2)nc1C (stereo not drawn)	inconclusive: 39.8 µM [inhibitor, single point]	–
Cc1cccc(N(CC(N)=O)C2SC(=O)N(Cc3cccc(C(=O)O)c3)C2=O)c1 (stereo not drawn)	inactive	–
O=C(Nc1nnc(-c2ccco2)s1)C1CCCCC1	inactive	–
Cc1cc(CN2CCN(c3ccc(F)cc3)CC2)cs1	inconclusive: 0.891 µM [inhibitor, full curve, poor fit]	–
COC(=O)c1ccc([C@H]2Nc3ccc(S(=O)(=O)Nc4cccc(C)c4)cc3[C@H]3C=CC[C@H]32)cc1	inconclusive: 7.94 µM [inhibitor, single point]	–
C#CCSc1nnc(-c2ccc(C)cc2)o1	inconclusive: 4.47 µM [inhibitor, single point]	–
Cc1cc(C(=O)COC(=O)[C@H](C)NC(=O)c2ccco2)c(C)n1Cc1ccco1	inconclusive: 0.126 µM [inhibitor, full curve, poor fit]	–
CCCCOc1ccc(C(=O)N(Cc2ccco2)Cc2ccco2)cc1	active: 22.4 µM	–
Cc1cc(C)c2oc(-c3ccc(C)c(NC(=O)/C=C/c4ccco4)c3)nc2c1	inconclusive: 39.8 µM [inhibitor, partial curve]	–
COc1ccccc1NCC(=O)c1ccc(Cl)cc1	active: 89.1 µM	–
COc1ccccc1CN=C1NC(=O)C(CC(=O)Nc2ccc(C(C)=O)cc2)S1 (stereo not drawn)	inconclusive: 35.5 µM [inhibitor, partial curve]	–
Nc1nccc(/C=C/c2c(F)cccc2Cl)n1	inactive	–
Cc1cc(-c2ccc(S(=O)(=O)N3CCN(C)CC3)s2)on1	inactive	–
COc1ccccc1N1CCN(C(=O)CCS(=O)(=O)c2cc(Br)cc3c2N(C(C)=O)CC3)CC1	inconclusive: 0.126 µM [inhibitor, full curve, poor fit]	–

Entries listed so far that contain fluorine, in the order listed:
SMILES	Potency	activity change, negative = inhibition
CC(NC(=O)c1ccccc1F)c1nnc(SCC(=O)Nc2nccs2)n1C (stereo not drawn)	inconclusive: 89.1 µM [inhibitor, single point]	–
CCN(CC)CCNC(=O)c1ccc(NC(=O)c2ccccc2-c2ccc(C(F)(F)F)cc2)cc1	inactive	–
Cc1cc(CN2CCN(c3ccc(F)cc3)CC2)cs1	inconclusive: 0.891 µM [inhibitor, full curve, poor fit]	–
Nc1nccc(/C=C/c2c(F)cccc2Cl)n1	inactive	–

The results go on:

SMILES	Potency	activity change, negative = inhibition
Cc1no[n+]([O-])c1COc1ccccc1/C=N/n1nnnc1N	inconclusive: 17.8 µM [inhibitor, full curve]	–
O=C(Nc1ccc(-c2nc3ccccc3[nH]2)cc1)c1ccc2c(c1)OCO2	inconclusive: 22.4 µM [inhibitor, full curve]	–
O=C(Nc1cccc(-c2cn3ccccc3n2)c1)c1ccccc1	inconclusive: 89.1 µM [inhibitor, single point]	–
COc1ccc(OC)c2nc3c(cc12)CCC3	–	inconclusive: -190% [inhibitor]
Cc1cc2nc(-c3ccc(SCc4ccc(C(=O)O)cc4)nc3)[nH]c2cc1C	active: 22.4 µM	–
COc1ccc(/C=C/C(=O)O)cc1S(=O)(=O)N1CCCC1	inconclusive: 28.2 µM [inhibitor, full curve, poor fit]	–
Clc1ccc(-c2nc3n(n2)Cc2ccccc2-3)cc1	inconclusive: 5.01 µM [inhibitor, single point]	–
O=C(COc1cccc2c1CCN(Cc1ccccc1)C2=O)NCc1ccco1	inconclusive: 70.8 µM [inhibitor, single point]	–
CC1(C)CC(=O)CC2(C1)NCC(c1ccccc1Cl)c1c2[nH]c2ccccc12 (stereo not drawn)	inconclusive: 0.126 µM [inhibitor, full curve, poor fit]	–
O=C(c1cccs1)c1cn(CCOc2ccccc2Cl)c2ccccc12	inconclusive: 28.2 µM [inhibitor, full curve, poor fit]	–
Cc1ccc(C(=O)NNC(=O)c2cc3cc4ccccc4nc3s2)cc1	active: 50.1 µM	–
Cc1cc(OCC(=O)N(Cc2ccc(N(C)C)cc2)C2CCS(=O)(=O)C2)cc(C)c1Cl (stereo not drawn)	inconclusive: 11.2 µM [inhibitor, partial curve]	–
CCCCc1ccc(NC(=O)C2CCN(S(C)(=O)=O)CC2)cc1	inconclusive: 7.08 µM [inhibitor, partial curve, poor fit]	–
O=C1NC(=O)/C(=C/c2ccccc2Oc2ccc(Cl)cc2)S1	inconclusive: 31.6 µM [inhibitor, single point]	–
COc1ccccc1CCNC(=O)CCc1c(C)c2cc3c(C)c(C)oc3cc2oc1=O	inconclusive: 56.2 µM [inhibitor, partial curve]	–
COc1ccc(C(=O)Nc2ccncc2)cc1[N+](=O)[O-]	inconclusive: 39.8 µM [inhibitor, single point]	–
CCOc1ccc(CCNC(=O)Cn2c(=O)c3cccn3c3cccnc32)cc1	active: 100 µM	–
CCOC(=O)c1cc(-c2ccc(N3CCOCC3)cc2)nn1-c1ccccc1C(=O)O	active: 12.6 µM	–
COc1cc2cccc(OC)c(=O)c2c(O)c1OC	inactive	–
NC(=O)c1sc2nc(-c3cccs3)ccc2c1N	inconclusive: 79.4 µM [inhibitor, single point]	–
CN(C)[C@@H]1C(=O)C(C(=O)NCN2CCCC2)=C(O)[C@@]2(O)C(=O)C3=C(O)c4c(O)cccc4[C@@](C)(O)C3CC12 (stereo partly drawn)	active: 0.501 µM	–
COC(=O)c1ccc(Cn2c(O)c(N=NC(N)=S)c3ccccc32)o1	–	inconclusive: -84.4% [inhibitor]
